Measured data: PubChem BioAssay AID1259308 (NCATS, 2017)
This is an unselected part of about 59,000 reagents tested. In the full data, about 1,510 (2.6%) got an active call. 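Calls use total luciferase alone and ignore viability, so some active siRNAs may act by altering cell number.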 Not all columns of the deposit are shown.

Purpose: 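Genes whose loss raises luciferase production in HEK293 cells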 (primary screen)
System: human HEK293 embryonic kidney cells stably expressing firefly luciferase (HEK-CMV-Luc2-Hygro)
Reagents: single siRNA against human genes, 0.8 pmol siRNA per well
Time to read-out: 72 h
Detection: 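Reporter luminescence and viable-cell signal on separate replicate plates, given as percent of non-targeting control and median/MAD z-scores, plus per-cell luciferase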
Scale: total luciferase, z-score and total luciferase, % of control: higher = more reporter protein produced
Call rule: 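Active when the median/MAD z-score for overall luciferase is greater than 3; a gene was taken forward for validation with new siRNAs if at least two of its three siRNAs passed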
Calls: active = raised luciferase; inactive = no rise

Silencing of CCDC149 (GeneID 91050) [SID160753877] came out at: total luciferase, z-score -1.43; total luciferase, % of control 53.5; inactive. CCDC149 (GeneID 91050) [SID160753878] showed total luciferase, z-score -0.491; total luciferase, % of control 72.1; inactive. Depletion of CCDC149 (GeneID 91050) [SID160753880] came out at: total luciferase, z-score -1.36; total luciferase, % of control 54.9; inactive. APOH (GeneID 350) [SID160718941] scored total luciferase, z-score 1.5; total luciferase, % of control 112; inactive. Knock-down of APOH (GeneID 350) [SID160718952] resulted in: total luciferase, z-score 1.09; total luciferase, % of control 104; inactive. With knock-down of APOH (GeneID 350) [SID160718963], the record shows total luciferase, z-score -0.0156; total luciferase, % of control 81.6; inactive.

Against ODAD4 (GeneID 83538) [SID160751171], the values are total luciferase, z-score 0.436; total luciferase, % of control 90.6; inactive. ODAD4 (GeneID 83538) [SID160751172] showed total luciferase, z-score 0.153; total luciferase, % of control 84.9; inactive. ODAD4 (GeneID 83538) [SID160751173] gave total luciferase, z-score 3.05; total luciferase, % of control 143; active. Against ZNF24 (GeneID 7572) [SID160719037] the deposit lists total luciferase, z-score -0.0144; total luciferase, % of control 81.6; inactive. After knock-down of ZNF24 (GeneID 7572) [SID160719038] the results were total luciferase, z-score -1.24; total luciferase, % of control 57.3; inactive. For ZNF24 (GeneID 7572) [SID160719039], the entry reads total luciferase, z-score 0.588; total luciferase, % of control 93.6; inactive.

Against POLR1E (GeneID 64425) [SID160747772], the values are total luciferase, z-score -0.684; total luciferase, % of control 68.3; inactive. Against POLR1E (GeneID 64425) [SID160747773] the deposit lists total luciferase, z-score -0.0524; total luciferase, % of control 80.8; inactive. Against POLR1E (GeneID 64425) [SID160747774], the entry reads total luciferase, z-score 1.35; total luciferase, % of control 109; inactive. Depletion of OR7E24 (GeneID 26648) [SID160732876] resulted in: total luciferase, z-score 1.38; total luciferase, % of control 109; inactive. Depletion of OR7E24 (GeneID 26648) [SID160732877] gave: total luciferase, z-score 0.0396; total luciferase, % of control 82.7; inactive. Knock-down of OR7E24 (GeneID 26648) [SID160738124] gave: total luciferase, z-score 1.24; total luciferase, % of control 107; inactive.

Against CCL21 (GeneID 6366) [SID160716479], the entry reads total luciferase, z-score 3.04; total luciferase, % of control 142; active. With knock-down of CCL21 (GeneID 6366) [SID160716480], the record shows total luciferase, z-score 1.19; total luciferase, % of control 106; inactive. Against CCL21 (GeneID 6366) [SID160716481], the values are total luciferase, z-score 1.06; total luciferase, % of control 103; inactive.

Not a retest: an excerpt of the list.
CCL21 (GeneID 6366) [SID160716480] | total luciferase, z-score = 1.19; total luciferase, % of control = 106; Call = inactive
CCL21 (GeneID 6366) [SID160716481] | total luciferase, z-score = 1.06; total luciferase, % of control = 103; Call = inactive
